# PubChem BioAssay AID743456 – Peter MacCallum Cancer Centre, 2014
# Assay: 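miRNA mimics altering how resistant colon cancer cells respond to vorinostat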 (primary screen)
# Cell system: human HCT116-VR colon cancer cells, a vorinostat-resistant HCT116 line
# Reagents: miRNA mimic
# Timing: about 3 days from transfection to readout; drug present for the last 24 h
# Conditions: vorinostat at 2.5 µM final for 24 h
# Measurement: 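Per-well live-cell protease fluorescence and caspase luminescence under 2.5 µM vorinostat for 24 h, scored as robust z-scores and against mock transfection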
# Direction: viability robust z-score and viability vs mock transfection: higher = more viable cells; caspase robust z-score: higher = more caspase activity, more apoptosis
# Hit rule: 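a mimic counts as active if it lands in a lowered-viability class or a caspase-activation class; wells with too few cells without drug are left out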
# Shown is an unselected part of 878 deposited reagents. Over the whole deposit, 27 (3.1%) got an active call. 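27 mimics are marked active, unlike an earlier stated count of 24; the viability threshold is described inconsistently.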 Entries without a mark were called inactive. Not stated in the record: the amount of reagent.
microRNA,viability robust z-score,caspase robust z-score,viability hit class,caspase hit class,viability vs mock transfection
hsa-miR-519a,-0.05,2.04,no change,no change,0.78
hsa-miR-1263,-0.15,2.84,no change,no change,0.72
hsa-miR-484,-0.11,-0.2,no change,no change,0.73
hsa-miR-1253,0.3,1.56,no change,no change,0.84
hsa-miR-543,0.74,-0.38,no change,no change,0.91
hsa-miR-520e,0.22,2.29,no change,no change,0.82
hsa-miR-1284,0.94,-0.7,no change,no change,0.92
hsa-miR-1292,1.14,0.02,no change,no change,0.96
hsa-let-7b*,-0.05,0.15,no change,no change,0.74
hsa-miR-1910,1.13,0.37,no change,no change,0.96
hsa-miR-491-3p,-2.84,-0.55,no change,no change,0.36
hsa-miR-374b*,-0.53,0.31,no change,no change,0.65
hsa-miR-10b,-0.41,-0.78,no change,no change,0.72
hsa-miR-545,0.4,-0.03,no change,no change,0.86
hsa-miR-186*,0.7,-0.85,no change,no change,0.9
hsa-miR-874,-1.63,4.11,no change,no change,0.55
hsa-miR-525-3p,0.07,0.5,no change,no change,0.8
hsa-miR-154*,0.84,-0.82,no change,no change,0.93
hsa-miR-454*,1.31,-0.48,no change,no change,0.98
hsa-miR-517b,0.56,1.43,no change,no change,0.85
hsa-miR-520b,-0.18,1.94,no change,no change,0.76
hsa-miR-632,-0.95,0.78,no change,no change,0.58
hsa-miR-449b*,-0.22,2.18,no change,no change,0.71
hsa-miR-302b*,0.36,-0.42,no change,no change,0.82
hsa-miR-363*,-2.96 (active),3.75,reduced viability,no change,0.3
hsa-miR-323-5p,-2.81,-0.4,no change,no change,0.37
hsa-miR-619,0.4,0.57,no change,no change,0.85
hsa-miR-671-5p,-0.5,0,no change,no change,0.72
hsa-miR-384,0.22,-0.74,no change,no change,0.83
hsa-let-7d*,0.89,-0.2,no change,no change,0.91
hsa-miR-1274b,0.62,-0.22,no change,no change,0.86
hsa-miR-542-5p,0.38,0.92,no change,no change,0.86
hsa-miR-523,0.7,0.4,no change,no change,0.88
hsa-miR-627,0.2,-0.89,no change,no change,0.82
hsa-miR-137,-1.7,-0.02,no change,no change,0.53
hsa-miR-193a-3p,-2.88,4.29,no change,no change,0.3
hsa-miR-205,-0.82,-0.45,no change,no change,0.6
hsa-miR-582-3p,0.34,1.44,no change,no change,0.84
hsa-miR-1300,-4.2,1.06,no change,no change,0.16
hsa-miR-125b-1*,0.55,0.9,no change,no change,0.88
hsa-miR-373*,1.36,0.59,no change,no change,1
hsa-miR-222*,-1.86,1.27,no change,no change,0.42
hsa-miR-720,1.96,-0.24,no change,no change,1.09
hsa-miR-1915,1.14,-0.44,no change,no change,0.98
hsa-miR-607,0.4,-0.74,no change,no change,0.86
hsa-miR-605,-1.02,1.48,no change,no change,0.57
hsa-miR-1299,-0.55,3.5,no change,no change,0.7
hsa-miR-1977,-0.03,1.75,no change,no change,0.78
hsa-miR-1974,-0.57,2.75,no change,no change,0.7
hsa-miR-297,-1.28,-0.32,no change,no change,0.52

Only “viability hit class”, for 8 of the entries above:
hsa-miR-373*	no change
hsa-miR-222*	no change
hsa-miR-720	no change
hsa-miR-1915	no change
hsa-miR-607	no change
hsa-miR-605	no change
hsa-miR-1299	no change
hsa-miR-1977	no change
